Experimental data as given in article PMC10725505, “Molecular forms of BMP15 and GDF9 in mammalian species that differ in litter size” (Scientific Reports, 2023).
No constants are given. Whether binding was seen depends on the method and setting. Binding can be weak; no strength is given.

Target: T1, recombinant human (h)BMPR2 ectodomain (human) (UniProt Q13873)
T1 sequence (chain, N-biotinylated using EZ-Link sulfo-NHS-LC-biotin (1,1.2 molar ratio)): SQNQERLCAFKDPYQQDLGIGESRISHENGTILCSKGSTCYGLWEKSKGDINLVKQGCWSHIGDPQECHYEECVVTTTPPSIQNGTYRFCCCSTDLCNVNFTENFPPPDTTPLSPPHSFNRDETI
Assay: SPR; ProteOn XPR36; biotinylated hBMPR2 captured (~200 RU) on a streptavidin-coated GLC chip; log2 serial dilutions of partially purified (dialysed, concentrated) 293H-secreted GDF9 or BMP15 as analytes; 25 °C, 100 µl/min; 10 mM HEPES, 500 mM NaCl, 3.4 mM EDTA, 0.005% Tween 20; association 120 s; analyte concentrations not known; only the target purified

binding: binds
Substance: recombinant red deer GDF9 (ligand)
